Data: PubChem BioAssay AID1347423 (Functional Genomics Laboratory (NCATS/FGL), 2020)
The campaign covered roughly 52,000 sequences. About 210 (0.4%) were called active.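 Rule for the calls: active = gene whose silencing raises cell survival under the drug, median off-target-corrected z-score across its silencing RNAs 2 or more; inactive = the rest.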 This is one part of the list.

Assay: Resistance to Poly (ADP-Ribose) Polymerase inhibitor: Gene Identification via Genome-wide siRNA Screen
Settings: mouse BRCA2 R2336H ES cells, olaparib, CellTiter-Glo viability; hits give high values
Method in brief: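 Mouse BRCA2 R2336H ES cells were reverse-transfected with siRNA (20 nM final), treated at 48 h with 500 nM olaparib, and read by CellTiter-Glo after 72 h. Scores: MAD-based z per siRNA, median per gene, seed off-target correction.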

Q: With GCACCGACCACCAAAUCUATT against Muc10 as the sequence, how does the z-score read?
A: inactive: -1.36

Q: For GGCUGCUACUUCAGACAGCTT against Pou6f2, which z-score is on record?
A: inactive: -0.51

Q: With “CGCAUCUCUAUCCACACUUTT against 1700010H15Rik” as the sequence, how does the z-score read?
A: inactive: 0.262

Q: For GGUAUUAAACACCAGCUCUTT against Nsfl1c, which z-score is on record?
A: inactive: 0.0649

Q: Which z-score does the source give for GGACCAGGAUCAGUUGAUCTT against Olfr1406 here?
A: inactive: 0.717

Q: With CGGACAAAGGACGAGUGUUTT against BC032265 as the sequence, how does the z-score read?
A: inactive: -3

Q: With “CCUUGGAAUUCAUCAACGGTT against 4930432O21Rik” as the sequence, how does the z-score read?
A: inactive: -0.295

Q: Which z-score does the source give for “GGAAUUAGAGACUGCGGAATT against 4930566A11Rik” here?
A: inactive: 1.36

Q: With “CCACAUACAUUUCACAGGGTT against 1810019J16Rik” as the sequence, how does the z-score read?
A: inactive: -0.517

Q: With “CCACUGGCUACCACAUGUUTT against 9330151E16Rik” as the sequence, how does the z-score read?
A: inactive: -0.222

Q: With CCAUGAUCGCUAGUGAAGCTT against Mrpl24 as the sequence, how does the z-score read?
A: inactive: -1.2

Q: Which z-score does the source give for GGGUAUCAACCACUUUUUUTT against Serping1 here?
A: inactive: 0.572

Q: Which z-score does the source give for GGGCACACACUUCAAUUUUTT against Sap18 here?
A: inactive: 1.66

Q: Which z-score does the source give for GGAUAUGAAACAAUAACAGTT against Arid5b here?
A: inactive: 0.223

Q: For GCAGUGGAAGUGAAUCUCGTT against BC016198, which z-score is on record?
A: inactive: 1.95

Q: Which z-score does the source give for “GGAGAUAUAAUCAGUGUGGTT against 0710007A14Rik” here?
A: inactive: -0.327

Q: Which z-score does the source give for GGAACUGAUGAAUAUUUCATT against Chrnb1 here?
A: active: 0.177

Q: For CCUACAACUCAGCGCAUGATT against Ptgs1, which z-score is on record?
A: inactive: 0.526

Q: Which z-score does the source give for CGGCUGACUACAUUUCAAGTT against Camk4 here?
A: inactive: -1.24

Q: Which z-score does the source give for GCAAAUGUAAUGGUGAAAGTT against Cldn1 here?
A: inactive: 0.948

Q: With GGAAUCUUCUCAGCUUAAUTT against Slc17a2 as the sequence, how does the z-score read?
A: inactive: 0.117

Q: Which z-score does the source give for GGGAAACUCCAGUUCAAAGTT against Zfp238 here?
A: inactive: -0.172

Q: With GCCGGAAUCAGUGAAAGGCTT against Fln29 as the sequence, how does the z-score read?
A: inactive: -0.301

Q: For GGUCUUUCCGGCAGUUCUUTT against Rxrg, which z-score is on record?
A: inactive: -2.09

Q: For GGGCAAUCUGAGCAAUUGUTT against Wnt7b, which z-score is on record?
A: inactive: -1.1

Q: With “CCUAUAGCUUCGGCAAGACTT against B930074I24” as the sequence, how does the z-score read?
A: inactive: 0.513

Q: Which z-score does the source give for GGGAAGGAUUUUUGAUGAUTT against Arfgap1 here?
A: inactive: 1.46

Q: For “GGUGGGCCUUUGUCUCAACTT against 4833441J24Rik”, which z-score is on record?
A: inactive: -0.116

Q: With CGGCUCACUAGCAGUGUCUTT against Ppm1b as the sequence, how does the z-score read?
A: inactive: 1.5

Q: Which z-score does the source give for GGCCAUUAACAGCAGUCUGTT against Kifc1 here?
A: inactive: -2.66

Q: For “GGAGAAACUUCUUUAAAGCTT against 5830427D03Rik”, which z-score is on record?
A: inactive: 0.725

Q: With GGUCUGUGACGAGAAGCUATT against Rab4a as the sequence, how does the z-score read?
A: inactive: -1.24

Q: For CCAAAUAUUACAAACUCGGTT against Sgk, which z-score is on record?
A: inactive: 0.652

Q: For GGAUCAGUACCUGUGAUGGTT against Adamdec1, which z-score is on record?
A: inactive: -0.51

Q: For GGAAGAGGACAACCAGCUCTT against Kai1, which z-score is on record?
A: inactive: -1.09

Q: Which z-score does the source give for “GGUUCUUUUCAGCUCAUUATT against 4930547C10Rik” here?
A: inactive: -1.32

Q: For “GGAGAUUAACAAGUGGUGGTT against D16Ertd607e”, which z-score is on record?
A: inactive: -0.0996

Q: With “GGAGAAAGUCUACCUGAGCTT against C630028F04Rik” as the sequence, how does the z-score read?
A: inactive: -1.14

Q: For GGCAGAACACUGAAAGGGATT against Mrps11, which z-score is on record?
A: inactive: -0.109

Q: With GGGACAACCCAUCAACAAUTT against Catsper1 as the sequence, how does the z-score read?
A: inactive: 1.1

Q: Which z-score does the source give for GGAUAAACGGACAGGCCCATT against Socs2 here?
A: inactive: 0.465

Q: Which z-score does the source give for GCCUUUCGAUUCUAAUUGCTT against Fkbp6 here?
A: inactive: -0.0166

Q: Which z-score does the source give for CCAAUGUGCUCAUGCUCUATT against Nodal here?
A: inactive: -1.98

Q: For “GCUCUCUGACCUUGAUUGGTT against 0910001K20Rik”, which z-score is on record?
A: inactive: 0.0905

Q: Which z-score does the source give for “CCAGAUCCUAAAGUCUUUATT against 4931412G03Rik” here?
A: inactive: 0.0284

Q: For CGAGAACCCUGACAUAAUCTT against Ddx54, which z-score is on record?
A: inactive: -1.11

Q: Which z-score does the source give for GCCACAAAUCGAAUCUUACTT against Zfp146 here?
A: inactive: 0.652

Q: Which z-score does the source give for GGAGACGAAUCCUUUCAGUTT against Misc12 here?
A: inactive: 0.0807

Q: For “GGAGGAUGGCUUUACCGCATT against 2210008I11Rik”, which z-score is on record?
A: inactive: 0.56

Q: With GGAUCAUGGUCCUGUCUUUTT against Rlbp1 as the sequence, how does the z-score read?
A: inactive: 0.0172

Q: Which z-score does the source give for GGUUCAUAGUCUGUUAUGATT against Skd3 here?
A: inactive: 0.236

Q: For “GCUCGAAGAAAGGCCCUGATT against B430306N03Rik”, which z-score is on record?
A: inactive: -1.71

Q: For GGAUGAUACUUCAUUACACTT against Ankrd12, which z-score is on record?
A: inactive: -0.613

Q: For GGGAGACUCUCAUUUAAAUTT against Casp3, which z-score is on record?
A: inactive: -0.207

Q: For “GGGAUAAAGGCACUUUGUATT against 4732435N03Rik”, which z-score is on record?
A: inactive: -1.47

Q: For “GCAGACUUACAUCCGGAAGTT against 1110037P11Rik”, which z-score is on record?
A: inactive: -0.657

Q: Which z-score does the source give for CCUGGCAGAUGGAUUCGUATT against Kif6 here?
A: inactive: -0.935

Q: Which z-score does the source give for GCUCGUACAUCUAUGGCUATT against Psmb6 here?
A: inactive: -3

Q: Which z-score does the source give for GGGAAGAUCAGCUUUCAUATT against Pak1ip1 here?
A: inactive: -0.291

Q: For “GGGAAAAAGAACAAGAUCATT against 2410017P07Rik”, which z-score is on record?
A: inactive: 0.591

Q: For CCACGUCCUAAGAGACAUUTT against Eps8l3, which z-score is on record?
A: inactive: -0.96

Q: For GGAGAACAGUUUCAAGAUGTT against Rnf152, which z-score is on record?
A: inactive: 1.09

Q: Which z-score does the source give for GGACCUGACCUUGCUGUUATT against Fancg here?
A: inactive: 2.31

Q: Which z-score does the source give for GGACAAAACCAUCUCCUUCTT against Olfr17 here?
A: inactive: 0.251

Q: With “GGAGCUCAUAUACACCUGCTT against 2810481F14Rik” as the sequence, how does the z-score read?
A: inactive: -0.373
